Reference: PubChem BioAssay AID504834 (National Center for Advancing Translational Sciences (NCATS), 2011)
About 22,000 (6.9%) of roughly 320,000 compounds were called active. The shares of active, inactive and inconclusive entries below differ from those in the screen. The call rests on the fitted dose curve; in most records, active means well fitted inhibition curve with a large enough effect; inconclusive means small, poorly fitted or top-dose-only effect, or another doubt; inactive means no such curve, though single readings can be large or run the other way. Where the call is inconclusive, the potency comes from a doubtful curve fit.

Assay: Primary qHTS for delayed death inhibitors of the malarial parasite plastid, 96 hour incubation
Conditions: P. falciparum luciferase reporter growth; series mostly up to 28.7 µM
How it was run: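 Luminescence readout: decreased luciferase signal marks inhibited growth of reporter-expressing P. falciparum in infected red cells (2% hematocrit, 0.05% parasitemia final), exposed to compound two generations (96 h, 37 C, 5% CO2).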
Potency means the concentration at half of the fitted maximal effect.

| SMILES | Potency |
| --- | --- |
| Cc1cc2cc(C(c3nnnn3C3CCCC3)N(Cc3cccnc3)Cc3ccco3)c(=O)[nH]c2cc1C (centres undefined) | active: 2.33 µM |
| Cc1cc[n+](C(C)C(=O)c2ccc(Cl)cc2)cc1 (centres undefined) | inactive |
| CCN(CC)c1ccc(NC(=O)CSc2nnc3nc(C)cc(C)n23)cc1 | inconclusive: 4.65 µM [inhibitor, full curve, poor fit] |
| COc1ccc(NC(=O)CSCC(=O)Nc2ccc(C)c(S(=O)(=O)N3CCCCCC3)c2)cc1 | inconclusive: 7.38 µM [inhibitor, partial curve] |
| COc1ccccc1C1C(C#N)=C(N)N(c2cccnc2)C2=C1C(=O)CC(C)(C)C2 (centres undefined) | inconclusive: 2.08 µM [inhibitor, partial curve] |
| Cc1cc(/C=C(/C#N)C(=O)Nc2ccccc2)c(C)n1-c1cccnc1 | inconclusive: 1.17 µM [inhibitor, partial curve] |
| CC(C)(C)C(=O)N(Cc1ccc(Cl)cc1)Cc1cccnc1 | inconclusive: 11.7 µM [inhibitor, partial curve, poor fit] |
| Cc1nn(CC(=O)O)c(C)c1[N+](=O)[O-] | inconclusive: 13.1 µM [inhibitor, partial curve, poor fit] |
| COc1ccc(NC(=O)c2cncc(Br)c2)cc1S(=O)(=O)N1CCCCC1 | inactive |
| Cc1ccc2nc(CCl)[n+]([O-])c(-c3ccccc3)c2c1 | inconclusive: 13.1 µM [inhibitor, single point] |
| O=S(=O)(c1ccc(S(=O)(=O)N2CCN(C3CCCCC3)CC2)cc1)N1CCCCCC1 | inconclusive: 5.22 µM [inhibitor, single point] |
| Cc1c(C(=O)Nc2cccc([N+](=O)[O-])c2)sc2ncn(CC(=O)N3CCOCC3)c(=O)c12 | inactive |
| O=C(c1ccccc1F)N(Cc1nc2ccccc2c(=O)[nH]1)C1CCCC1 | inactive |
| COC(=O)CSc1ccc2nnc(-c3ccc(OC)c(OC)c3)n2n1 | inactive |
| CC(=O)c1c(C)n(-c2ccc(N(C)C)cc2)c2ccc(OCC(N)=O)cc12 | active: 9.28 µM |
| Cc1ccc(Cl)cc1NC(=O)CCC(=O)NCc1ccco1 | inconclusive: 16.5 µM [inhibitor, single point] |
| Cc1ccc2c(Cl)c(C)c(N3CCCCC3)nc2n1 | inconclusive: 16.5 µM [inhibitor, single point] |
| CCCNC(=O)c1ccc2snnc2c1 | inconclusive: 18.5 µM [inhibitor, single point] |
| C#CCOCCOCCOCCNc1nc(N2CCN(C(=O)Cn3cc(CCCN=C(N)N)nn3)CC2)nc(N2CCN(C(=O)[C@H]([C@@H](C)CC)n3cc(CCCN=C(N)N)nn3)CC2)n1 | active: 0.037 µM |
| CC(C)(C)c1ccc(S(=O)(=O)N2CCN(C(=O)c3ccc4c(c3)C(=O)N(Cc3ccncc3)C4=O)CC2)cc1 | inactive |
| O=C(O)CC(C(=O)O)n1nc(-c2ccccc2)cc1-c1ccccc1 (centres undefined) | inactive |
| O=C(N/N=C/c1cccs1)C1CC(=O)N(c2ccccc2)C1 (centres undefined) | inconclusive: 18.5 µM [inhibitor, single point] |

Molecules listed so far that have a cyano group (two):

| SMILES | Potency |
| --- | --- |
| COc1ccccc1C1C(C#N)=C(N)N(c2cccnc2)C2=C1C(=O)CC(C)(C)C2 (centres undefined) | inconclusive: 2.08 µM [inhibitor, partial curve] |
| Cc1cc(/C=C(/C#N)C(=O)Nc2ccccc2)c(C)n1-c1cccnc1 | inconclusive: 1.17 µM [inhibitor, partial curve] |

(list continues)

| SMILES | Potency |
| --- | --- |
| CCOC(=O)c1sc(=NC(=O)c2c(F)cccc2F)n(C)c1C | inactive |
| Nc1c(-c2ccc(Cl)cc2)cnc2ncnn12 | inconclusive: 0.0657 µM [inhibitor, full curve, poor fit] |
| COC(=O)CCC(=O)N1CCC(CCC(=O)NCc2ccc(F)cc2)CC1 | active: 5.22 µM |
| COc1ccc([C@]23Cc4c(ccc5ccccc45)C(O2)C2=C(CC4(CCCCC4)OC2=O)O3)cc1 | inconclusive: 2.39 µM [inhibitor, partial curve, poor fit] |
| COc1cccc(C(=O)NC(=S)Nc2ccccc2N2CCCC2)c1 | inconclusive: 11.7 µM [inhibitor, single point] |
| COc1cccc2cc(C(=O)NNC(=O)c3ccc(Br)cc3)c(=O)oc12 | inconclusive: 0.465 µM [inhibitor, full curve, poor fit] |
| CCOC(=O)C1CCN(C(=O)c2ccccc2NS(=O)(=O)c2ccc(C)cc2)CC1 | inconclusive: 14.7 µM [inhibitor, single point] |
| COc1ccc(/C=C/c2nnc(NC(=O)C(C)C)s2)cc1 | inactive |
| Cc1ccccc1/C=C/c1nc2ccccc2c(=O)n1Cc1ccccc1 | active: 10.4 µM |
| O=C(c1ccc([N+](=O)[O-])cc1[N+](=O)[O-])N1CCN(C(=O)C2CCCO2)CC1 (centres undefined) | inconclusive: 18.5 µM [inhibitor, partial curve, poor fit] |
| Cc1ccc(C(=O)n2c(=S)nc3ccccn32)cc1 | inactive |
| COC(=O)C1=C(c2ccc(F)cc2F)C[C@@H]2CC[C@H]1N2C(=O)NCc1ccc2c(c1)OCO2 | inconclusive: 18.5 µM [inhibitor, single point] |
| COc1ccc(Cc2nnc(NC(=O)C3CC(=O)N(CCc4ccc(F)cc4)C3)s2)cc1OC (centres undefined) | inconclusive: 18.5 µM [inhibitor, single point] |
| Nc1ccccc1S(=O)(=O)NCCCCc1ccccc1 | inactive |
| CC(NC(=O)C1CCCN(S(=O)(=O)c2cccc3nonc23)C1)c1ccccc1 (centres undefined) | inconclusive: 18.5 µM [inhibitor, single point] |
| COc1ccc(C(=O)N/N=C/c2ccc(OC)c(CSc3ccccn3)c2)cc1 | inactive |
| COc1cc(Cl)cc2c1Sc1ccccc1/C2=C/CCN(C)C | inconclusive: 18.5 µM [inhibitor, single point] |
| CCc1nn2c(=O)cc(COC(=O)c3cc(Cl)c(OC)c(OC)c3)nc2s1 | inconclusive: 18.5 µM [inhibitor, single point] |
| COCCNc1c2c(nc3c(-c4ccccc4)c(C)nn13)CCC2 | inconclusive: 9.28 µM [inhibitor, single point] |
| CCN(C)C(=O)Oc1cccc([C@H](C)N(C)C)c1 | inactive |
| COc1ccc(NC(=O)CSc2nnc(CNC(=O)c3ccco3)o2)cc1 | inconclusive: 0.0738 µM [inhibitor, full curve, poor fit] |
| Cc1cc(=O)oc2cc(OCC(=O)c3ccccc3)ccc12 | active: 6.57 µM |
